In the supplement of paper PMC10849652 one finds log2 fold change data, which are given here for 32 targets.

The chains behind the UniProt entries cited, without tags or fusion partners. Where a name states a change or a piece, a line headed by the entry shows the natural chain unless it says otherwise.
UniProt Q14166: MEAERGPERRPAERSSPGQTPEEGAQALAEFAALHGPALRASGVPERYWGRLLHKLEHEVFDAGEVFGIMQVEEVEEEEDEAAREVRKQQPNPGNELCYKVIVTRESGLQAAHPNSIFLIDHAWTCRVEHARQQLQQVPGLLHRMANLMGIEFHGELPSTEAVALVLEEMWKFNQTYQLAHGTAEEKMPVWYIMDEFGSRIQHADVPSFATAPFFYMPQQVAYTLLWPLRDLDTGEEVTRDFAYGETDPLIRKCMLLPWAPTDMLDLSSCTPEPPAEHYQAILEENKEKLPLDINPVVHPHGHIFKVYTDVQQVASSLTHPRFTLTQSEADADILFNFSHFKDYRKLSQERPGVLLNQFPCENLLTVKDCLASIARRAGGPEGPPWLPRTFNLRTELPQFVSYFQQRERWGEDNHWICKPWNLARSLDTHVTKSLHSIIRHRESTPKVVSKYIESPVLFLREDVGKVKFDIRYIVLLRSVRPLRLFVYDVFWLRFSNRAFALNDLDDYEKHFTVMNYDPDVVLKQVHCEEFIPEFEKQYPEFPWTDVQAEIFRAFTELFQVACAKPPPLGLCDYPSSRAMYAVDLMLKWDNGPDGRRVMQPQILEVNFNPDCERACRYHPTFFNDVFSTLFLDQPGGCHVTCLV
UniProt Q6PID6, whole entry, looked up: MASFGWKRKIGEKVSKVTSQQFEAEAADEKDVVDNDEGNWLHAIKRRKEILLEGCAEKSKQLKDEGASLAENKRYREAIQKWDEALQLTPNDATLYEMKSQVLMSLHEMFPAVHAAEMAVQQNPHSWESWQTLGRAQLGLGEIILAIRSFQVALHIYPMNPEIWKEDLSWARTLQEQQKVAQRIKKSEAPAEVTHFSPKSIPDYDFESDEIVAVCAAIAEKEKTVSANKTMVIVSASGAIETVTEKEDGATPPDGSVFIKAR
UniProt P49815: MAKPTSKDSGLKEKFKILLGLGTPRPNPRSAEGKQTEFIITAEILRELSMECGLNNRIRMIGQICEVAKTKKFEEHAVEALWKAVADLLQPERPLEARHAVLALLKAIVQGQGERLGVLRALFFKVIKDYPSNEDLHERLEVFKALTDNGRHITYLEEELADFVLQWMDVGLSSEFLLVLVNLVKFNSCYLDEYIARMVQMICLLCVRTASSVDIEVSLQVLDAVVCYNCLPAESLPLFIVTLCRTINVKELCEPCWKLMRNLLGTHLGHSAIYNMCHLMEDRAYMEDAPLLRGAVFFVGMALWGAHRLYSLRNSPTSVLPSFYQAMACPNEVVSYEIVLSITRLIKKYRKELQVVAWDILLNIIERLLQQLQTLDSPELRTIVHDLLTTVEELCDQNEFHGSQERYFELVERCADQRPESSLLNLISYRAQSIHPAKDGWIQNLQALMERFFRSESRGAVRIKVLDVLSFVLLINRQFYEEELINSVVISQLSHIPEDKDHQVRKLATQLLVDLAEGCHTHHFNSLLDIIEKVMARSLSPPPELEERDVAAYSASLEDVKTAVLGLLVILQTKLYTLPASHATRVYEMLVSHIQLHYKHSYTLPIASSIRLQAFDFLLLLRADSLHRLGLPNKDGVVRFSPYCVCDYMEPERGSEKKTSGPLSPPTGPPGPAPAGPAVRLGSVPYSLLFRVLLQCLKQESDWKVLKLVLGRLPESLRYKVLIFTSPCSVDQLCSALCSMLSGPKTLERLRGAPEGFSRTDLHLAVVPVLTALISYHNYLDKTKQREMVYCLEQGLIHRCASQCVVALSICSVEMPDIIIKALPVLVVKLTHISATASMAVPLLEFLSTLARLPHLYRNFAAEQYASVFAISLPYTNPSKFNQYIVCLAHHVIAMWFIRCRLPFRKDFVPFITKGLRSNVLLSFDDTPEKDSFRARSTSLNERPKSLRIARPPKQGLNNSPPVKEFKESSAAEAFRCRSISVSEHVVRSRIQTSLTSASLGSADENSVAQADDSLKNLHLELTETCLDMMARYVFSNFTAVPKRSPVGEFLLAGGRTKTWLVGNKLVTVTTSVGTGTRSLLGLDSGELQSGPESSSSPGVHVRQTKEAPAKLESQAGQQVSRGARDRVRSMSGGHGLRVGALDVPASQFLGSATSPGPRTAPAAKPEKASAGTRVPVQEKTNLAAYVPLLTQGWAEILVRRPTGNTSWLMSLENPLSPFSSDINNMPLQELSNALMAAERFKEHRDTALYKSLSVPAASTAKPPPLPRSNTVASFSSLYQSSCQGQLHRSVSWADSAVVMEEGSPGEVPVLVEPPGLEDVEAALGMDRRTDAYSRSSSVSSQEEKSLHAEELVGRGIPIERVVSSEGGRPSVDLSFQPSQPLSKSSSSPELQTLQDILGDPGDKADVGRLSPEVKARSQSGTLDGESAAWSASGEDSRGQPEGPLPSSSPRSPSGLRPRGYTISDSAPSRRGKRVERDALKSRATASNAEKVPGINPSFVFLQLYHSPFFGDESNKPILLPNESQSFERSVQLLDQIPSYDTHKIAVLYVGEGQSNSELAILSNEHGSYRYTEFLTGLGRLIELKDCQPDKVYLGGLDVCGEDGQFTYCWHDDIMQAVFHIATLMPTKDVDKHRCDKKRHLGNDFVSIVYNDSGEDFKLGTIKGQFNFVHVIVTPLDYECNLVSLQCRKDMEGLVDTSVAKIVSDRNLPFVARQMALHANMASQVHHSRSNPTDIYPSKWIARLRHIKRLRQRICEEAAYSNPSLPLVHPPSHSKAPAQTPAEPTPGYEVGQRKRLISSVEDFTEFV
UniProt Q8WWH5: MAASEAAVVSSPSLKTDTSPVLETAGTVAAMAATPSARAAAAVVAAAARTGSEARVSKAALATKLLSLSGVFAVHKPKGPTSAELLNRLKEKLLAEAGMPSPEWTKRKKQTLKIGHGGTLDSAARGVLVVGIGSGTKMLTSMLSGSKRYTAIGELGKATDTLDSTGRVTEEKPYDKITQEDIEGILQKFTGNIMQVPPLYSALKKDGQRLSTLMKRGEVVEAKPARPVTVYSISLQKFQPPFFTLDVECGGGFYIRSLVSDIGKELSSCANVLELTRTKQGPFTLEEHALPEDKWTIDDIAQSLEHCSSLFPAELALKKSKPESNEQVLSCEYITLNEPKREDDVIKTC
UniProt Q9UPN9: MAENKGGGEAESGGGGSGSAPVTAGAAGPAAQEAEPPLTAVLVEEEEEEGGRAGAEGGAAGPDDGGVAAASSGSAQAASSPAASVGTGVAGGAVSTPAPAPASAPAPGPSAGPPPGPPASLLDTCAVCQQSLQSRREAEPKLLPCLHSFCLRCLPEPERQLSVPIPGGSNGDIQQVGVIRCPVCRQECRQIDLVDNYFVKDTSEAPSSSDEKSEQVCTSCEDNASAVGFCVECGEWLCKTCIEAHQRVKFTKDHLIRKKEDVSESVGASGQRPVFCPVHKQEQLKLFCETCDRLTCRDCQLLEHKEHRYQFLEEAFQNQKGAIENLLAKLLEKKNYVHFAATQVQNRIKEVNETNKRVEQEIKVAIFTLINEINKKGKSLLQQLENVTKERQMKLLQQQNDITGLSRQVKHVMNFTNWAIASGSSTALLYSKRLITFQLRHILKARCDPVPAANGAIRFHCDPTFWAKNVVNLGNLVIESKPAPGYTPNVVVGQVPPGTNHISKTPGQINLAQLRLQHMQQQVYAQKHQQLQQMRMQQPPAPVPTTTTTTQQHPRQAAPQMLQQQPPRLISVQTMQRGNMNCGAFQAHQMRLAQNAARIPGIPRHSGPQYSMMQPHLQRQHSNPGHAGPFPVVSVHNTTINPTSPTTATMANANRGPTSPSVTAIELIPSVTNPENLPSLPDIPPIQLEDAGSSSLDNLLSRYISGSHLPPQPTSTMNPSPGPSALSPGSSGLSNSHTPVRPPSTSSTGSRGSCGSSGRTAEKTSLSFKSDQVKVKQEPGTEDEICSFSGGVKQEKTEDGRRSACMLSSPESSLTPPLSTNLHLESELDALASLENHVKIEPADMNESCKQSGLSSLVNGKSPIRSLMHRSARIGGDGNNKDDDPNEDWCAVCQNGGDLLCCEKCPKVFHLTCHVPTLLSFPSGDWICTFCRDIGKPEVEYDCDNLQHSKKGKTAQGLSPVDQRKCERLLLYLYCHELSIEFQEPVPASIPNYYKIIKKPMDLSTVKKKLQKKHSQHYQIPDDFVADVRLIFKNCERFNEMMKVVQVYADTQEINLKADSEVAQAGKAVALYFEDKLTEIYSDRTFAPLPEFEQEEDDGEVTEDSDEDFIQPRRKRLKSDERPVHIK
UniProt Q9NX07: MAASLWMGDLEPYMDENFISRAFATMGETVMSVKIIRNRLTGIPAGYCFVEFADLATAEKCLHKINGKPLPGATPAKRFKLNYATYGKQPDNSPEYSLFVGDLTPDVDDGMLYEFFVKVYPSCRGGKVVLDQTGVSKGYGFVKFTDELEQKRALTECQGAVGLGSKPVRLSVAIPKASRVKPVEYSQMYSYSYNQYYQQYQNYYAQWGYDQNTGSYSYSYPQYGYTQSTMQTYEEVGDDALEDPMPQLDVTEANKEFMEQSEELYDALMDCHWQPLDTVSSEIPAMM
UniProt Q6NXR4: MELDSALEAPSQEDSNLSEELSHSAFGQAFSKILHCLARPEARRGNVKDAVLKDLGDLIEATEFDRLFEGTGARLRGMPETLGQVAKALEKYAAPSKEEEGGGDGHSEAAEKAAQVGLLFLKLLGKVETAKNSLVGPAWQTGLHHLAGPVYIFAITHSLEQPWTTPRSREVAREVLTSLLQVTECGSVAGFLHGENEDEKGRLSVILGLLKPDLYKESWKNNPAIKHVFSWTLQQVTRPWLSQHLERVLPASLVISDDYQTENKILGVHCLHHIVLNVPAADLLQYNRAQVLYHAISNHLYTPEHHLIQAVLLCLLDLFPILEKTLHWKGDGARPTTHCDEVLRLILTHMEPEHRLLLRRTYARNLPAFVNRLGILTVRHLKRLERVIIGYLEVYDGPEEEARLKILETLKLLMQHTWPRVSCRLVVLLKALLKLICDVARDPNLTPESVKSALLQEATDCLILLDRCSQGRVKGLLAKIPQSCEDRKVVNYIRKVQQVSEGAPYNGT
UniProt Q5BVD1: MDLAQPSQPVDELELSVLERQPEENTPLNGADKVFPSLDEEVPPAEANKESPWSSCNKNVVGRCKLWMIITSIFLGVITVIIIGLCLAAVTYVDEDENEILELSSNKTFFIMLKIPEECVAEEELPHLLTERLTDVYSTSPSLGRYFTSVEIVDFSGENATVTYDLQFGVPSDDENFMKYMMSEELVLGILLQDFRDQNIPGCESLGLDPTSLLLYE
UniProt Q9UL33, whole entry, looked up: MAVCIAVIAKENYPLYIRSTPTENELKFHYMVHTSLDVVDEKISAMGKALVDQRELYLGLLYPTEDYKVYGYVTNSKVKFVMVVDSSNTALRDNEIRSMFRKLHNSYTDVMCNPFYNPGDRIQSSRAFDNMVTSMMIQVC
UniProt Q99614: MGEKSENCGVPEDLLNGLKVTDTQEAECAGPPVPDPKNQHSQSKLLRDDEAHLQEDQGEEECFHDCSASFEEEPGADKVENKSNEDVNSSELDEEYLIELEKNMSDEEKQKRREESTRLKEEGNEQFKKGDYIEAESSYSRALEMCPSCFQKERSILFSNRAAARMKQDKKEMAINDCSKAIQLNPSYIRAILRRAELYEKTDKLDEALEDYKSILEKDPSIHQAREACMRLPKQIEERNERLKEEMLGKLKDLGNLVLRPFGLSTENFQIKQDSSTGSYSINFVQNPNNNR
UniProt Q6DKK2: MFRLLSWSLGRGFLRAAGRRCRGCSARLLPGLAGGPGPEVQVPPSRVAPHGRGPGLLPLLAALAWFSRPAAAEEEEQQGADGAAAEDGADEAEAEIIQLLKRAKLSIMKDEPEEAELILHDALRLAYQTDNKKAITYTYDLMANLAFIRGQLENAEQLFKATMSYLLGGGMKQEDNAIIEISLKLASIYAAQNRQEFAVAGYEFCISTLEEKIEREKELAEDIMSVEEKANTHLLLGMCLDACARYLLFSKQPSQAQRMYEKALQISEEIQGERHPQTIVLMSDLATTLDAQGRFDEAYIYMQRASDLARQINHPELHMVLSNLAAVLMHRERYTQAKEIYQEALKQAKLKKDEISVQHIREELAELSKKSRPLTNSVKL
UniProt Q7Z4G4: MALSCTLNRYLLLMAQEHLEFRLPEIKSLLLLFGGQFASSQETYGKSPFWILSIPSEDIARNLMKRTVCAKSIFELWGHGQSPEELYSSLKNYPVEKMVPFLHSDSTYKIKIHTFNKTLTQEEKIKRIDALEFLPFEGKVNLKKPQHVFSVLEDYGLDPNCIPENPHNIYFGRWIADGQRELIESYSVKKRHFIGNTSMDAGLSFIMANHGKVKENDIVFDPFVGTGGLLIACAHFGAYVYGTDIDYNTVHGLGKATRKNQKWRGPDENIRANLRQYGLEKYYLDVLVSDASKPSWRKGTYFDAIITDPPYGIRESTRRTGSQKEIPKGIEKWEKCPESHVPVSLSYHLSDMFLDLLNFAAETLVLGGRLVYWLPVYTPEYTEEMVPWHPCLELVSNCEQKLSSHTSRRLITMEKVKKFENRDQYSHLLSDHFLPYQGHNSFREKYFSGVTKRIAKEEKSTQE

Some of the results follow.

Compound in one experiment: C=CC(=O)N1CCC[C@@H](n2nc(-c3ccc(Oc4ccccc4)cc3)c3c(N)ncnc32)C1 [ibrutinib]
Briefly: log2 fold change, soluble protein after heating vs DMSO (PISA); higher = thermal stabilisation; K562 lysate, 10 uM; active = over 0.2 and 3.5 SD of the protein, either way, in both replicates (recomputed). Put shortly: (§1)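 Pellets of K562 cells were dounce-homogenised in PBS pH 7.4 with 1 mM MgCl2, and the crude extract was held at 1 mg/mL protein for a 30 min treatment with 10 μM compound. Aliquots were heated for 3 min over 48°C-58°C and pooled before NP-40 was added to 0.5% at 4°C. The supernatant from 21,000xg for 90 min was quantified by TMTpro 16plex LC-MS/MS with channel sums equalised. Values are reported from duplicates as log-two fold change in thermal stability relative to solvent controls.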
TTLL12 (UniProt Q14166): the log2 fold change was inactive: -0.018.
Regarding TTC33 (UniProt Q6PID6), the log2 fold change is inactive: 0.108.
On to TRMT1 (UniProt Q9NXH9), for which the log2 fold change is inactive: 0.011.
As for TRAPPC1 (UniProt Q9Y5R8), the log2 fold change is inactive: -0.001.
In the case of TRPC4AP (UniProt Q8TEL6), the log2 fold change was inactive: -0.074.
With TSC2 isoform 4 (UniProt P49815), the log2 fold change is inactive: -0.085.
Still for that read-out and setting: for TSEN15 (UniProt Q8WW01) the value was inactive: -0.072; for TRUB1 (UniProt Q8WWH5), inactive: -0.063.
On to TSG101 (UniProt Q99816), for which the log2 fold change is inactive: 0.007.
On to TTI1 (UniProt O43156), for which the log2 fold change is inactive: 0.
On to TTL (UniProt Q8NG68), for which the log2 fold change is inactive: 0.014.
Same read-out and setting: with TRMT6 (UniProt Q9UJA5) the figure was inactive: 0.036; with TTC5 (UniProt Q8N0Z6), inactive: 0.019.
Consider TRIM33 isoform 2 (UniProt Q9UPN9), for which the log2 fold change was inactive: 0.04.
Regarding TRNAU1AP (UniProt Q9NX07), the log2 fold change is inactive: -0.013.
Take TTI2 (UniProt Q6NXR4): the log2 fold change was inactive: 0.012.
As for TRMT5 (UniProt Q32P41), the log2 fold change was inactive: 0.017.
TRIT1 (UniProt Q9H3H1): the log2 fold change is inactive: 0.122.
With TRMT10A (UniProt Q8TBZ6), the log2 fold change was inactive: -0.002.
As to TRAP1 (UniProt Q12931), the log2 fold change was inactive: -0.002.
On the same count and under the same terms, with TSPAN14 (UniProt Q8NG11) the figure was inactive: 0.039.
The same measure, in the same setting: with TRMT61A (UniProt Q96FX7) the figure was inactive: 0.028; with TRMT61B (UniProt Q9BVS5), inactive: 0.006; with TTMP isoform 3 (UniProt Q5BVD1), inactive: 0.09.
As for TSR3 (UniProt Q9UJK0), the log2 fold change is inactive: 0.058.
Consider TRAPPC2L (UniProt Q9UL33), for which the log2 fold change is inactive: 0.
TTC1 (UniProt Q99614): the log2 fold change is inactive: -0.01.
For TRIM65 (UniProt Q6PJ69), the log2 fold change was inactive: 0.053.
As for TRIM25 (UniProt Q14258), the log2 fold change is inactive: -0.001.
Take TTC19 (UniProt Q6DKK2): the log2 fold change is inactive: -0.006.
On to TRIR (UniProt Q9BQ61), for which the log2 fold change was inactive: 0.023.
For TRMT11 (UniProt Q7Z4G4), the log2 fold change is inactive: 0.017.

Compound in another experiment: CC(=O)c1cnc2ccc(-c3cc(Cl)c(O)c(Cl)c3)nc2c1N[C@H]1CC[C@H](CN(C)C)CC1
Described as above. The method in brief:
as §1
For TTLL12 (UniProt Q14166), the log2 fold change is inactive: 0.003.
Regarding TTC33 (UniProt Q6PID6), the log2 fold change is inactive: -0.039.
The same measure, in the same setting: for TRMT1 (UniProt Q9NXH9) the value was inactive: 0.018; for TRAPPC1 (UniProt Q9Y5R8), inactive: -0.025; for TRPC4AP (UniProt Q8TEL6), inactive: 0.013.
Take TSC2 isoform 4 (UniProt P49815): the log2 fold change is inactive: 0.013.
As to TSEN15 (UniProt Q8WW01), the log2 fold change was inactive: -0.021.
For TRUB1 (UniProt Q8WWH5), the log2 fold change is inactive: -0.025.
On to TSG101 (UniProt Q99816), for which the log2 fold change was inactive: -0.001.
For TTI1 (UniProt O43156), the log2 fold change is inactive: 0.014.
For TTL (UniProt Q8NG68), the log2 fold change is inactive: 0.101.
Consider TRMT6 (UniProt Q9UJA5), for which the log2 fold change was inactive: -0.016.
With TTC5 (UniProt Q8N0Z6), the log2 fold change is inactive: 0.007.
As to TRIM33 isoform 2 (UniProt Q9UPN9), the log2 fold change was inactive: 0.006.
On to TRNAU1AP (UniProt Q9NX07), for which the log2 fold change was inactive: -0.212.
On the same count and under the same terms, for TTI2 (UniProt Q6NXR4) the value was inactive: 0.016; for TRMT5 (UniProt Q32P41), inactive: -0.029; for TRIT1 (UniProt Q9H3H1), inactive: 0.021.
For the target TRMT10A (UniProt Q8TBZ6), the log2 fold change is inactive: -0.003.
As to TRAP1 (UniProt Q12931), the log2 fold change was inactive: 0.003.
Regarding TSPAN14 (UniProt Q8NG11), the log2 fold change was inactive: 0.005.
Consider TRMT61A (UniProt Q96FX7), for which the log2 fold change is inactive: 0.012.
Take TRMT61B (UniProt Q9BVS5): the log2 fold change is inactive: -0.018.
Take TTMP isoform 3 (UniProt Q5BVD1): the log2 fold change was inactive: 0.
Take TSR3 (UniProt Q9UJK0): the log2 fold change is inactive: 0.004.
For TRAPPC2L (UniProt Q9UL33), the log2 fold change was inactive: -0.032.
In the case of TTC1 (UniProt Q99614), the log2 fold change is inactive: -0.012.
With TRIM65 (UniProt Q6PJ69), the log2 fold change was inactive: 0.073.
Take TRIM25 (UniProt Q14258): the log2 fold change was inactive: -0.001.
The same measure, in the same setting: with TTC19 (UniProt Q6DKK2) the figure was inactive: -0.024.
For the target TRIR (UniProt Q9BQ61), the log2 fold change is inactive: 0.003.
Turning to TRMT11 (UniProt Q7Z4G4), the log2 fold change was inactive: 0.005.

Compound in another experiment: CC(C)(C)Cn1c(N)nc2ccc(-c3[nH]c(C(C)(C)C)nc3-c3ccc(F)cc3)nc21 [ralimetinib]
The description is as above. The method in brief: as §1
Take TTLL12 (UniProt Q14166): the log2 fold change is inactive: 0.026.
On to TTC33 (UniProt Q6PID6), for which the log2 fold change is inactive: -0.015.
On the same count and under the same terms, for TRMT1 (UniProt Q9NXH9) the value was inactive: 0.018.
Still for that read-out and setting: with TRAPPC1 (UniProt Q9Y5R8) the figure was inactive: -0.051.
For TRPC4AP (UniProt Q8TEL6), the log2 fold change is inactive: 0.027.
Take TSC2 isoform 4 (UniProt P49815): the log2 fold change was inactive: 0.065.
On the same count and under the same terms, for TSEN15 (UniProt Q8WW01) the value was inactive: -0.016; for TRUB1 (UniProt Q8WWH5), inactive: 0.014.
The same measure, in the same setting: for TSG101 (UniProt Q99816) the value was inactive: 0.046.
For TTI1 (UniProt O43156), the log2 fold change was inactive: 0.018.
With TTL (UniProt Q8NG68), the log2 fold change is inactive: -0.029.
The same measure, in the same setting: for TRMT6 (UniProt Q9UJA5) the value was inactive: 0.03.
With TTC5 (UniProt Q8N0Z6), the log2 fold change is inactive: 0.017.
The same measure, in the same setting: for TRIM33 isoform 2 (UniProt Q9UPN9) the value was inactive: 0.024.
Same read-out and setting: with TRNAU1AP (UniProt Q9NX07) the figure was inactive: 0.07.
Turning to TTI2 (UniProt Q6NXR4), the log2 fold change was inactive: 0.019.
With TRMT5 (UniProt Q32P41), the log2 fold change was inactive: 0.02.
Regarding TRIT1 (UniProt Q9H3H1), the log2 fold change is inactive: 0.085.
For TRMT10A (UniProt Q8TBZ6), the log2 fold change was inactive: 0.021.
Same read-out and setting: with TRAP1 (UniProt Q12931) the figure was inactive: -0.011; with TSPAN14 (UniProt Q8NG11), inactive: 0.016.
The same measure, in the same setting: for TRMT61A (UniProt Q96FX7) the value was inactive: -0.078; for TRMT61B (UniProt Q9BVS5), inactive: 0.002.
TTMP isoform 3 (UniProt Q5BVD1): the log2 fold change was inactive: -0.034.
Same read-out and setting: with TSR3 (UniProt Q9UJK0) the figure was inactive: -0.018; with TRAPPC2L (UniProt Q9UL33), inactive: 0.013.
Same read-out and setting: for TTC1 (UniProt Q99614) the value was inactive: -0.016; for TRIM65 (UniProt Q6PJ69), inactive: 0.046.
In the case of TRIM25 (UniProt Q14258), the log2 fold change was inactive: -0.013.
With TTC19 (UniProt Q6DKK2), the log2 fold change is inactive: -0.001.
Turning to TRIR (UniProt Q9BQ61), the log2 fold change is inactive: -0.011.
The same measure, in the same setting: with TRMT11 (UniProt Q7Z4G4) the figure was inactive: 0.009.
